Test system: Arabidopsis thaliana leaves
Assay: Non-targeted metabolomics of Arabidopsis thaliana leaves treated with short peptide
Assay type: in vivo
Settings: vs GFP control
Procedure: In this experiment, the materials used for metabonomics analysis and phytohormone detection are Arabidopsis thaliana samples with consistent growth status. Synthetic short peptide of GSS1-PI with the corresponding concentration and mass was weighed and dissolved in 0.1% DMSO to obtain a 0.01 mg/mL treatment solution. A wild-type Arabidopsis thaliana plant of about four weeks old was taken, two cotyledons were collected and mechanically damaged to obtain three small holes, 2 μL of the GSS1-PI solution was added dropwise into each small hole, while GFP solution was used as the control group. […]
After the experiment was completed, the relevant data files were imported into the database search software for analysis and processing, and the residence time, mass-to-charge ratio and other related parameters of each metabolite were simply screened and checked. […] Then peak extraction and peak area quantification were carried out to integrate the target ions, and then ion peaks were predicted by molecular formula and compared with local data. In order to remove the interference of background ions, the original quantitative results were standardized and blank sample controls were added. Finally, the relative quantitative results of the relevant metabolites were obtained and identified. […]

Sequence: PDYKQKLRDSKAWESLETIGIPLDADVM (insect-derived short peptide) [GSS1-PI]
- number of differential metabolites accumulated (24 h treatment): 27
- number of differential metabolites accumulated (48 h treatment): 40

Reference: patent US20250197461A1, “Insect-derived short peptide for improving abscisic acid (ABA) content in cruciferous plant” (Gannan Normal University, priority 2023, published 2025)
